Measured values from paper PMC3093395.
No constants are given. Whether binding was seen depends on the method and setting. In cells and extracts the contact can be indirect. Some results given as binding are weak or reduced against the parent protein; the word gives no strength. For some assays here: Where a sequence is shown, tags or fusion partners need not be part of it. Blank lines part the entries; values can stand above or below the binder they belong to.

Key:
[1] = target: T1, Nanog-LAP (mouse (BAC transgene in mouse R1/E ESC)) (UniProt Q80Z64); test: co-IP; nuclear extracts of Nanog-LAP ESC or wildtype ESC precipitated with a GFP antibody, IgG isotype control; Western blot with GFP and STAG1 antibodies
T1 sequence: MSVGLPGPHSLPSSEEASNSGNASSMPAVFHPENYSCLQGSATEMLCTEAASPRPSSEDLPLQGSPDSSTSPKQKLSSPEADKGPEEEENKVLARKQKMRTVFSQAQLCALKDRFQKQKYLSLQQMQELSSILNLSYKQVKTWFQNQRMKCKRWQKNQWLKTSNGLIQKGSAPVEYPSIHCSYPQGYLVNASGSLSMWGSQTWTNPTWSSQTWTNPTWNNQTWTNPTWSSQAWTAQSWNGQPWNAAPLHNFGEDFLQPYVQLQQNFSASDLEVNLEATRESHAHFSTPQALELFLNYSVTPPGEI

[2] = target: T2, RAD21-LAP (mouse (BAC transgene in mouse R1/E ESC)) (UniProt Q61550); test: co-IP; RAD21-LAP immunoprecipitation from RAD21 BAC-GFP ESC with a GFP antibody; Western blot
T2 sequence: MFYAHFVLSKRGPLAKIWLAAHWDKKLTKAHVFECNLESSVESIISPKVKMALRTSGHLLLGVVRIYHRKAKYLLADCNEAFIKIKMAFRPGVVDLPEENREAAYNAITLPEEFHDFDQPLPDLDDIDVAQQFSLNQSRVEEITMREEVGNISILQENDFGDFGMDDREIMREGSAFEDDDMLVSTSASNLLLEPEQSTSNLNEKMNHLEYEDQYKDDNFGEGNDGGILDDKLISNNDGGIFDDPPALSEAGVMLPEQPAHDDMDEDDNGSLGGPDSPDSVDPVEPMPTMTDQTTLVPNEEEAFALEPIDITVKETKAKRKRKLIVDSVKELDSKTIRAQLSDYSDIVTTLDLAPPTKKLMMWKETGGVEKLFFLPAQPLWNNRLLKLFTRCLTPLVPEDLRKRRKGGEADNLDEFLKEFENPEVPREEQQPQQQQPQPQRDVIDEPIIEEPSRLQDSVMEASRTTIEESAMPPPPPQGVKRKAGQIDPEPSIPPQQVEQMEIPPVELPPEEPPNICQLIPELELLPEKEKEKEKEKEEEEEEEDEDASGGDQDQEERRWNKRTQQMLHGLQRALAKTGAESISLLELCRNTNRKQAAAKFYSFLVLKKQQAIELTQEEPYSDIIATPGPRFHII

binding [1]: binds
B1: STAG1 (protein, UniProt Q9D3E6 1-1258)
chain: MITSELPVLQDSTNETTAHSDAGSELEETEVKGKRKRGRPGRPPSTNKKPRKSPGEKSRIEAGIRGAGRGRANGHPQQNGDGDPVTLFEVVKLGKSAMQSVVDDWIELYKQDRDIALLDLINFFIQCSGCRGTVRIEMFRNMQNAEIIRKMTEEFDEDSGDYPLTMPGPQWKKFRSNFCEFIGVLIRQCQYSIIYDEYMMDTVISLLTGLSDSQVRAFRHTSTLAAMKLMTALVNVALNLSIHQDNTQRQYEAERNKMIGKRANERLELLLQKRKELQENQDEIENMMNSIFKGIFVHRYRDAIAEIRAICIEEIGVWMKMYSDAFLNDSYLKYVGWTLHDRQGEVRLKCLKALQSLYTNRELFPKLELFTNRFKDRIVSMTLDKEYDVAVEAIRLVTLILHGSEEALSNEDCENVYHLVYSAHRPVAVAAGEFLHKKLFSRHDPQAEEALAKRRGRNSPNGNLIRMLVLFFLESELHEHAAYLVDSLWESSQELLKDWECMTELLLEEPVQGEEAMSDRQESALIELMVCTIRQAAEAHPPVGRGTGKRVLTAKERKTQIDDRNKLTEHFIITLPMLLSKYSADAEKVANLLQIPQYFDLEIYSTGRMEKHLDALLKQIKFVVEKHVESDVLEACSKTYSILCSEEYTIQNRVDIARSQLIDEFVDRFNHSVEDLLQEGEEADDDDIYNVLSTLKRLTSFHNAHDLTKWDLFGNCYRLLKTGIEHGAMPEQIVVQALQCSHYSILWQLVKITDGSPSKEDLLVLRKTVKSFLAVCQQCLSNVNTPVKEQAFMLLCDLLMIFSHQLMTGGREGLQPLVFNPDTGLQSELLSFVMDHVFIDQDEENQSMEGDEEDEANKIEALHKRRNLLAAFSKLIIYDIVDMHAAADIFKHYMKYYNDYGDIIKETLSKTRQIDKIQCAKTLILSLQQLFNELVQEQGPNLDRTSAHVSGIKELARRFALTFGLDQIKTREAVATLHKDGIEFAFKYQNQKGQEYPPPNLAFLEVLSEFSSKLLRQDKKTVHSYLEKFLTEQMMERREDVWLPLISYRNSLVTGGEDDRMSVNSGSSSSKTSSVRSKKGRPPLHRKRVEDESLDNTWLNRTDTMIQTPGPLPTPQLTSTVLRENSRPMGEQIQEPESEHGSEPDFLHNPQMQISWLGQPKLEDLNRKDRTGMNYMKVRAGVRHAVRGLMEEDAEPIFEDVMMSSRSQLEDMNEEFEDTMVIDLPPSRNRRERAELRPDFFDSAAIIEDDSGFGMPMF

binding [2]: binds
B2: SMC1a (protein, UniProt Q9CU62 1-1233)
chain: MGFLKLIEIENFKSYKGRQIIGPFQRFTAIIGPNGSGKSNLMDAISFVLGEKTSNLRVKTLRDLIHGAPVGKPAANRAFVSMVYSEEGAEDRTFARVIVGGSSEYKINNKVVQLHEYSEELEKLGILIKARNFLVFQGAVESIAMKNPKERTALFEEISRSGELAQEYDKRKKEMVKAEEDTQFNYHRKKNIAAERKEAKQEKEEADRYQRLKDEVVRAQVQLQLFKLYHNEVEIEKLNKELASKNKEIEKDKKRMDKVEDELKEKKKELGKMMREQQQIEKEIKEKDSELNQKRPQYIKAKENTSHKIKKLEAAKKSLQNAQKHYKKRKGDMDELEKEMLSVEKARQEFEERMEEESQSQGRDLTLEENQVKKYHRLKEEASKRAATLAQELEKFNRDQKADQDRLDLEERKKVETEAKIKQKLREIEENQKRIEKLEEYITTSKQSLEEQKKLEGELTEEVEMAKRRIDEINKELNQVMEQLGDARIDRQESSRQQRKAEIMESIKRLYPGSVYGRLIDLCQPTQKKYQIAVTKVLGKNMDAIIVDSEKTGRDCIQYIKEQRGEPETFLPLDYLEVKPTDEKLRELKGAKLVIDVIRYEPPHIKKALQYACGNALVCDNVEDARRIAFGGHQRHKTVALDGTLFQKSGVISGGASDLKAKARRWDEKAVDKLKEKKERLTEELKEQMKAKRKEAELRQVQSQAHGLQMRLKYSQSDLEQTKTRHLALNLQEKSKLESELANFGPRINDIKRIIQSREREMKDLKEKMNQVEDEVFEEFCREIGVRNIREFEEEKVKRQNEIAKKRLEFENQKTRLGIQLDFEKNQLKEDQDKVHMWEQTVKKDENEIEKLKKEEQRHMKIIDETMAQLQDLKNQHLAKKSEVNDKNHEMEEIRKKLGGANKEMTHLQKEVTAIETKLEQKRSDRHNLLQACKMQDIKLPLSKGTMDDISQEEGSSQGEESVSGSQRTSSIYAREALIEIDYGDLCEDLKDAQAEEEIKQEMNTLQQKLNEQQSVLQRIAAPNMKAMEKLESVRDKFQETSDEFEAARKRAKKAKQAFEQIKKERFDRFNACFESVATNIDEIYKALSRNSSAQAFLGPENPEEPYLDGINYNCVAPGKRFRPMDNLSGGEKTVAALALLFAIHSYKPAPFFVLDEIDAALDNTNIGKVANYIKEQSTCNFQAIVISLKEEFYTKAESLIGVYPEQGDCVISKVLTFDLTKYPDANPNPNEQ
